Measured values from PMC8631196.
These are yes or no findings as the source states them, for the method shown. Binding seen in cells or lysates may run through a third protein. Some binding calls cover weakened binding; strength is not graded here.

Target: T1, endothelial nitric oxide synthase (rat (endogenous in aorta and mesenteric vascular bed)) (UniProt Q62600)
T1 sequence: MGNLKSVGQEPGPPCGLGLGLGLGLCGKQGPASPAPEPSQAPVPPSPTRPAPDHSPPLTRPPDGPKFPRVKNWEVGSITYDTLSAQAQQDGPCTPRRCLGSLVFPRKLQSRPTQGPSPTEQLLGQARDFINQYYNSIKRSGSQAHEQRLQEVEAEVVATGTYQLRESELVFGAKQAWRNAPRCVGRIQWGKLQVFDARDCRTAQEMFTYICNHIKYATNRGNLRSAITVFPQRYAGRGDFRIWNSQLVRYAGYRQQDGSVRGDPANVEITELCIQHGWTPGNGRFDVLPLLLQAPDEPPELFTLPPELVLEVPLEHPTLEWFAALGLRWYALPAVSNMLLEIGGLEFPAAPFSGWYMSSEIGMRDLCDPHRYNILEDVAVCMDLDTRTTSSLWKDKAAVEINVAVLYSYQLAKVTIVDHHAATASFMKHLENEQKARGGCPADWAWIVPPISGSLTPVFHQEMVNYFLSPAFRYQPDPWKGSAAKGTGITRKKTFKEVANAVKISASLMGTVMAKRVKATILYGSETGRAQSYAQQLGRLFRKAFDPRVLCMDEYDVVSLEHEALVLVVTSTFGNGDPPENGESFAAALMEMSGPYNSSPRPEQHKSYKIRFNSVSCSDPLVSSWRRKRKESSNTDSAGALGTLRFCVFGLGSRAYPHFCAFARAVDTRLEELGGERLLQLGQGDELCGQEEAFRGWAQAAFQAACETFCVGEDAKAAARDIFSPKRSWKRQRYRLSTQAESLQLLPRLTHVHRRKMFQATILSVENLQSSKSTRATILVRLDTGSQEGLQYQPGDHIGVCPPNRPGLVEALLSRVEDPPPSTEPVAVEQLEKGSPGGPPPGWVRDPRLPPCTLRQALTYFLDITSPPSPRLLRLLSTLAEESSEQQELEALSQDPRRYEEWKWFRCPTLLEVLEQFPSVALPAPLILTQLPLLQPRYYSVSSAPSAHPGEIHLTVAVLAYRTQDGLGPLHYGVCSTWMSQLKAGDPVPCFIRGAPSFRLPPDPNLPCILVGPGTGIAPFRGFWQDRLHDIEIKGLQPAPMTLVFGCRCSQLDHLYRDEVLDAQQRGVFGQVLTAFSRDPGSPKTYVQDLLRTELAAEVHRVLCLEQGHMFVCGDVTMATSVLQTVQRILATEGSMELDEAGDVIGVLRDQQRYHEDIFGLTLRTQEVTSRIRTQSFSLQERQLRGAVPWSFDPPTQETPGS
Test: co-IP; eNOS immunoprecipitated (anti-eNOS, 4°C overnight; protein A/G PLUS-agarose 3 h) from 500 μg supernatant protein of pooled thoracic aorta or mesenteric bed lysed in 2% octyl-D-glucoside buffer; six washes in Tris-buffer; Cav-1 detected by Western blot; non-pregnant and pregnant Wistar rats and SHR

B1: caveolin-1 (protein, UniProt P41350 1-178)
chain: MSGGKYVDSEGHLYTVPIREQGNIYKPNNKAMADEVNEKQVYDAHTKEIDLVNRDPKHLNDDVVKIDFEDVIAEPEGTHSFDGIWKASFTTFTVTKYWFYRLLSTIFGIPMALIWGIYFAILSFLHIWAVVPCIKSFLIEIQCISRVYSIYVHTFCDPLFEAIGKIFSNIRISTQEEI
  binding: binds
